± gives the standard deviation. The entries are a selection whose mix differs from that of the whole data set. Many entries were measured with a wide error.
Test system: MILI (PIWIL2) piRISC loaded with L1MC piRNA (26 nt)
Assay: pre-steady-state target cleavage rate (min^-1); MIWI and MILI are mouse PIWI proteins and EfPiwi is from a freshwater sponge; tags in brackets are library labels; higher = faster piRNA-guided slicing of the target
Conditions: guide: L1MC piRNA 5'p-UAACUAAAUACUAUGCAAGCUGUAGG; auxiliary factor: 500 nM mouse GTSF1
Procedure: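 Cleave-'n-Seq: a library of target RNAs (target site embedded in constant flanks, ACAGCATTCCGCGTTAGTGATATCCG... 5' flank; DNA-blocked outside the site) at 0.1 nM was incubated with 1 nM active mouse MILI or MIWI piRISC (synthetic 5'-monophosphorylated piRNA guide) with or without 500 nM mouse GTSF1 at 33 °C for 1 min to 16 h. Uncleaved targets were sequenced and normalised to non-target controls, and the pooled three trials were fitted to a burst-and-steady-state model to give the pre-steady-state cleavage rate (min^-1; k3 is constrained to at most 1e-4). Sequence is the target site only; target names encode pairing extent (gX:gY) and contiguous / 1-mismatch / 2-mismatch / bulge geometry. Fits with R² ≤ 0 are excluded.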

Sequence	pre-steady-state target cleavage rate
UCCUGGAACAGCUUGCAUAGUAUUUAAGUUA	0.195 ± 0.029
UCCUCCUACAGCUUGCAUACUAUAUAGUUA	0.0619 ± 0.015
UCCUGGAUGUGCUUGCUAUAGUAUUUAGUUA	0.00199 ± 0.0066
UCCUGGAUGUGCUUGCAUAGAUUUUAGUAA	0.00169 ± 0.0071
UCCUGGAUGUCGUUGCAUAGUAUUUAGAUUA	0.0205 ± 0.0091
UCCUGGAUGUGGUUGCAUAGUAAUUAGUUA	0.162 ± 0.034
UCCUGGAUGUCGUUGCAUAGUAUUUAAUUA	0.0359 ± 0.013
UCCUGGAUGUCGAACGAUGGUAUUUAGUUA	< 0.0001
UCCUGGAACAGGUUGCAUAGUUUUUAGUUA	0.0335 ± 0.0065
UCCUGGAUGUCGUUGCAUAGUAUUUACAAA	0.00221 ± 0.005
UCCUGGAUGUCGUUGCAAAGAAUUUAGUUA	0.00111 ± 0.0091

Same assay, conditions: guide: L1MC piRNA 5'p-UAACUAAAUACUAUGCAAGCUGUAGG; auxiliary factor: none (no GTSF1)

Sequence	pre-steady-state target cleavage rate
UCCUGGAACAGCUUGCAUAGUAUUUAAGUUA	0.00781 ± 0.0028
UCCUCCUACAGCUUGCAUACUAUAUAGUUA	0.00157 ± 0.0042
UCCUCCAUGAGCUUGCAUAGUAUUUAGAAA	0.00119 ± 0.0047
UCCUCCUACAGCUUGCAUACAAUUUACAAA	0.000308 ± 0.0082
UCCUGGAUCAGCUUGCAUAGAAUUAAGUUA	0.0015 ± 0.0038
UCCUGGUACAGCUUGCAUACUAUUUUGUUA	0.00143 ± 0.0077
UCCUGGAACAGCUUGCAUAGUAUUUAGGUA	0.00216 ± 0.0032
UCCUGGUACAGCUUGCAUACAAUUUACAAA	0.000991 ± 0.0061
UCCUGGAUGUCGAUGGAUAGUAUAUAGUUA	0.000118 ± 0.046
UCCUGCUACAGCUUGCAUAGUAUGUAGUUA	0.000629 ± 0.011
UCCUGGAUGUCGAACGAUAUGUAUUUAGUUA	0.000134 ± 0.035
UCCUGCUACAGCUUGCAUUGUAUUUAGAUA	0.00206 ± 0.0031
UCCUGGAUGUGCUUGCUAUAGUAUUUAGUUA	0.00071 ± 0.011
UCCUGGAUGUGCUUCGAUAGUAUUUAGUAA	0.0012 ± 0.0056
UCCUGGAUGUGCUUGCAUAGAUUUUAGUAA	0.00158 ± 0.0036
UCCUGGAUGUCGUUGCAUAGUAUUUAGAUUA	0.00101 ± 0.0074
UCCUGGAACAGCUUGCUAUGUAUUUAGAAA	0.0012 ± 0.004
UCCUGGAUGUGGUUGCAUAGUAAUUAGUUA	0.00751 ± 0.0032
UCCUGGAUGUCGUUGCAUACUAAUUAGUUA	0.000437 ± 0.011
UCCUGGAUGUCGUUGCAUAGUAUUUAAUUA	0.000931 ± 0.0074
UCCUGGUACAGCUUGCAUAGUAUAUACAAA	0.00106 ± 0.0055
UCCUGGAUCAGCAUGCAUAGUAUUUAGAUA	0.0028 ± 0.0029
UCCUGGAUGUGCUUGCAAAGUAUUUUGUUA	0.00226 ± 0.0038
UCCUGGAUGUCGAACGAUGGUAUUUAGUUA	0.000498 ± 0.008
UCCUGGAACAGGUUGCAUAGUUUUUAGUUA	0.00467 ± 0.0021
UCCUGGAUGUCGUUGCAUAGUAUUUACAAA	0.000623 ± 0.01
UCCUGCUUGAGCUUGCAUAGUAUUUACAAA	0.00136 ± 0.0045
UCCUGGAUGUCGAAGCAAAGUUUUUAGUUA	0.000567 ± 0.0079
UCCUGGAUGUCGUUGCAAAGAAUUUAGUUA	0.00062 ± 0.0069

— the supplement of paper PMC10338343
